Test results: publication PMC8072677
Results are given in words; binding and its absence hold for the method and conditions named. Binding seen in cells or lysates may run through a third protein. Some entries that bind do so weakly or less than the wild type.

Amino acid sequences for entries named in this document (tags omitted). Residues count along the entry.
UniProt P32248, residues 25-378: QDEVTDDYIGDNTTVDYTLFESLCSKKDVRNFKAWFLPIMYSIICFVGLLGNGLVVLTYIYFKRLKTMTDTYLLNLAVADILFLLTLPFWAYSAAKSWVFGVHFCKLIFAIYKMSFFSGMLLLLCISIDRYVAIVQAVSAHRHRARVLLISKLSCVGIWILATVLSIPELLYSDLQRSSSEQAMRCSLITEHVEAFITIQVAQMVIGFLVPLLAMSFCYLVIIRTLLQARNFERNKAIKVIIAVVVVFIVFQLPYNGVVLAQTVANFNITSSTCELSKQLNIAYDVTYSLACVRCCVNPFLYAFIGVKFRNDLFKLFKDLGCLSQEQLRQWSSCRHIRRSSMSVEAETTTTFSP
UniProt P32121: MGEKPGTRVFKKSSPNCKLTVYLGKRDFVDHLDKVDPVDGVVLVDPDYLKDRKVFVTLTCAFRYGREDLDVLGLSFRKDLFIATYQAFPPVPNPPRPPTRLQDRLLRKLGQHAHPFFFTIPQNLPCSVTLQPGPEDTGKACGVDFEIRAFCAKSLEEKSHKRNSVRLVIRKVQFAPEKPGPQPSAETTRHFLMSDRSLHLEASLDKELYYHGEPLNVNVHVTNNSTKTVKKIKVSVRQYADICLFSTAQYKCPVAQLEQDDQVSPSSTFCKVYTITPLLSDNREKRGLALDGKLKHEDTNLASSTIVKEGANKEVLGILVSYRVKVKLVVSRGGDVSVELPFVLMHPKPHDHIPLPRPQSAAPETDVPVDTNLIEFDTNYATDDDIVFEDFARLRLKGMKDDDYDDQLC

Target: CCR7-EGFP (human CCR7 fused to EGFP) (human) (UniProt P32248)
Test: FRET or BRET; HeLa cells co-transfected with β-arrestin2-Nluc and CCR7-EGFP (CCR7-HA for baseline), coelenterazine H; stimulated with 500 nM CCL19, CCL19-S6 or CCL19-S6^649P1, or 1.5 µM CCL21, CCL21-S6 or CCL21-S6^649P1

“β-arrestin2-Nluc (from UniProt P32121 1-409)” was tested, and the binding was “binds”.
